Laboratory results as given in article PMC10580797.
Results are given in words; binding and its absence hold for the method and conditions named. In cells and extracts the contact can be indirect. A yes stands for co-enrichment or nearness to the bait. Other partners may have been found.

Molecular target: HA-NSP9 (SARS-CoV-2 non-structural protein 9) (SARS-CoV-2) (UniProt P0DTD1)
Assay: affinity purification with mass spectrometry

B1: Midline 1 (MID1), found by mass spectrometry with NSP9 (enzyme, UniProt O15344 1-667)
chain: METLESELTCPICLELFEDPLLLPCAHSLCFNCAHRILVSHCATNESVESITAFQCPTCRHVITLSQRGLDGLKRNVTLQNIIDRFQKASVSGPNSPSETRRERAFDANTMTSAEKVLCQFCDQDPAQDAVKTCVTCEVSYCDECLKATHPNKKPFTGHRLIEPIPDSHIRGLMCLEHEDEKVNMYCVTDDQLICALCKLVGRHRDHQVAALSERYDKLKQNLESNLTNLIKRNTELETLLAKLIQTCQHVEVNASRQEAKLTEECDLLIEIIQQRRQIIGTKIKEGKVMRLRKLAQQIANCKQCIERSASLISQAEHSLKENDHARFLQTAKNITERVSMATASSQVLIPEINLNDTFDTFALDFSREKKLLECLDYLTAPNPPTIREELCTASYDTITVHWTSDDEFSVVSYELQYTIFTGQANVVSLCNSADSWMIVPNIKQNHYTVHGLQSGTKYIFMVKAINQAGSRSSEPGKLKTNSQPFKLDPKSAHRKLKVSHDNLTVERDESSSKKSHTPERFTSQGSYGVAGNVFIDSGRHYWEVVISGSTWYAIGLAYKSAPKHEWIGKNSASWALCRCNNNWVVRHNSKEIPIEPAPHLRRVGILLDYDNGSIAFYDALNSIHLYTFDVAFAQPVCPTFTVWNKCLTIITGLPIPDHLDCTEQLP
binding: binds
